Experimental findings from paper PMC6410080 (Viruses, 2019) are described below.

One may read the viability as the share of living cells, or the viability signal relative to a control. Lower therefore signals more harm to the cells.

The nature of data set [1]: in vitro. As to conditions: human, % viability (SFV screen).
Data set [2] is described as follows: in vitro. As to conditions: human.

Molecules are shown by their SMILES. Where a name gives a salt, the structure may show the parent alone.

Turning to `CCCCc1oc2ccccc2c1C(=O)c1cc(I)c(OCCN(CC)CC)c(I)c1` [Amiodarone, Amiodarone hydrochloride], the viability at 10 µM in “in vitro [1]” amounted to 83.1%; in the data set “in vitro [2]”, 76.1%.
